The values below are quoted from earlier work in paper PMC7617459, “Comparative Evaluation and Profiling of Chemical Tools for the Nuclear Hormone Receptor Family 2” (ACS pharmacology & translational science, 2025).

In one data set the test system is full-length TLX. To be noted: cited from earlier work.
In another data set the target is TLX LBD. To be noted: ITC; cited from earlier work.
In the next data set the test system is TLX. To be noted: reporter gene assay; read-out: Gal4-TLX EC50; cited from earlier work.

Take `CC(C)NCC(O)COc1cccc2ccccc12` (stereo not drawn) [compound 18, propranolol]: the values for the EC50 in the data set with full-length TLX and in the data set with TLX were 37 µM and 32 µM, respectively. The Kd at TLX LBD was 0.5 µM.
